For at least one compound, name, drawing or mass did not settle the structure.
Legend:
Format in all cases: cell-based
[1] = system: Escherichia coli; experiment: Antimicrobial screening by agar dilution, Escherichia coli; settings: E. Coli
Experimental: (§1) The antibacterial properties of the synthesized compound ethyl 2-[9-(6-fluoro-2-hydroxyquinolin-3-yl)-1,8-dioxo-3,4,9,10-tetrahydroacridine-10-yl]-acetate were studied by the method of agar dilution. Test solutions of each compound was prepared in concentration of 1% using dimethylformamide as a solvent then they are diluted in physiological solution to obtain the final experimental dilutions 1:100, 1:200, 1:400, 1:800. The effect of these substances are compared with furacillin in a controllable study. The testing microbes used were gram positive bacteria Staphylococcus aureus, gram negative bacteria Pseudomonas aeruginosa and Escherichia coli and Candida albicans fungus. The experiments used for this survey were meat-pentonlu agar (EPA) for cultivation of bacteria and Saburo environment for the fungus. Each experiment used 1 mL of test solution on each plate […]. Two drops of emulsified with microbes feel were added. All experimental samples were taken from the agar after 10, 20, 40, 60 minutes in the environment on the basis of Patrk planted. The bacteria were cultivated at a temperature of 37° C. for 1 day and the mushroom was kept in a thermostat for 2 hours at a temperature of 28° C. Then results were checked. Results of the control (Furacilin) and the antimicrobial activity for the synthesized compounds are listed in are listed in Table 1.

[2] = system: Pseudomonas aeruginosa; experiment: Antimicrobial screening by agar dilution, Pseudomonas aeruginosa; settings: Ps. aeruginosa
Experimental: as §1

[3] = system: Staphylococcus aureus; experiment: Antimicrobial screening by agar dilution, Staphylococcus aureus; settings: St. Aereus
Experimental: as §1

[4] = system: Candida albicans; experiment: Antimicrobial screening by agar dilution, Candida albicans
Experimental: as §1

[5] = dilution rate 1:100, exposure time 10 min
[6] = dilution rate 1:100, exposure time 20 min
[7] = dilution rate 1:100, exposure time 40 min
[8] = dilution rate 1:100, exposure time 60 min
[9] = dilution rate 1:200, exposure time 10 min
[10] = dilution rate 1:200, exposure time 20 min
[11] = dilution rate 1:200, exposure time 40 min
[12] = dilution rate 1:200, exposure time 60 min
[13] = dilution rate 1:400, exposure time 10 min
[14] = dilution rate 1:400, exposure time 20 min
[15] = dilution rate 1:400, exposure time 40 min
[16] = dilution rate 1:400, exposure time 60 min
[17] = dilution rate 1:800, exposure time 10 min
[18] = dilution rate 1:800, exposure time 20 min
[19] = dilution rate 1:800, exposure time 40 min
[20] = dilution rate 1:800, exposure time 60 min

SMILES: NC(=O)N/N=C/c1ccc([N+](=O)[O-])o1 [Furacilin]
- antimicrobial activity (+/−) [1, 5]: −
- antimicrobial activity (+/−) [1, 6]: −
- antimicrobial activity (+/−) [1, 7]: −
- antimicrobial activity (+/−) [1, 8]: −
- antimicrobial activity (+/−) [1, 9]: +
- antimicrobial activity (+/−) [1, 10]: +
- antimicrobial activity (+/−) [1, 11]: +
- antimicrobial activity (+/−) [1, 12]: +
- antimicrobial activity (+/−) [1, 13]: +
- antimicrobial activity (+/−) [1, 14]: +
- antimicrobial activity (+/−) [1, 15]: +
- antimicrobial activity (+/−) [1, 16]: +
- antimicrobial activity (+/−) [1, 17]: +
- antimicrobial activity (+/−) [1, 18]: +
- antimicrobial activity (+/−) [1, 19]: +
- antimicrobial activity (+/−) [1, 20]: +
- antimicrobial activity (+/−) [2, 5]: +
- antimicrobial activity (+/−) [2, 6]: +
- antimicrobial activity (+/−) [2, 7]: +
- antimicrobial activity (+/−) [2, 8]: +
- antimicrobial activity (+/−) [2, 9]: +
- antimicrobial activity (+/−) [2, 10]: +
- antimicrobial activity (+/−) [2, 11]: +
- antimicrobial activity (+/−) [2, 12]: +
- antimicrobial activity (+/−) [2, 13]: +
- antimicrobial activity (+/−) [2, 14]: +
- antimicrobial activity (+/−) [2, 15]: +
- antimicrobial activity (+/−) [2, 16]: +
- antimicrobial activity (+/−) [2, 17]: +
- antimicrobial activity (+/−) [2, 18]: +
- antimicrobial activity (+/−) [2, 19]: +
- antimicrobial activity (+/−) [2, 20]: +
- antimicrobial activity (+/−) [3, 5]: −
- antimicrobial activity (+/−) [3, 6]: −
- antimicrobial activity (+/−) [3, 7]: −
- antimicrobial activity (+/−) [3, 8]: −
- antimicrobial activity (+/−) [3, 9]: +
- antimicrobial activity (+/−) [3, 10]: +
- antimicrobial activity (+/−) [3, 11]: +
- antimicrobial activity (+/−) [3, 12]: +
- antimicrobial activity (+/−) [3, 13]: +
- antimicrobial activity (+/−) [3, 14]: +
- antimicrobial activity (+/−) [3, 15]: +
- antimicrobial activity (+/−) [3, 16]: +
- antimicrobial activity (+/−) [3, 17]: +
- antimicrobial activity (+/−) [3, 18]: +
- antimicrobial activity (+/−) [3, 19]: +
- antimicrobial activity (+/−) [3, 20]: +
- antimicrobial activity (+/−) [4, 5]: −
- antimicrobial activity (+/−) [4, 6]: −
- antimicrobial activity (+/−) [4, 7]: +
- antimicrobial activity (+/−) [4, 8]: +
- antimicrobial activity (+/−) [4, 9]: +
- antimicrobial activity (+/−) [4, 10]: +
- antimicrobial activity (+/−) [4, 11]: +
- antimicrobial activity (+/−) [4, 12]: +
- antimicrobial activity (+/−) [4, 13]: +
- antimicrobial activity (+/−) [4, 14]: +
- antimicrobial activity (+/−) [4, 15]: +
- antimicrobial activity (+/−) [4, 16]: +
- antimicrobial activity (+/−) [4, 17]: +
- antimicrobial activity (+/−) [4, 18]: +
- antimicrobial activity (+/−) [4, 19]: +
- antimicrobial activity (+/−) [4, 20]: +
